Among the data in PubChem BioAssay AID248 (DTP/NCI, 2004) are survivor count and T/C values, retold here.

The experiment deals with L1210 leukemia ip in BDF1 mice, survival T/C. Description: NCI In Vivo Anticancer Drug Screen. Data for tumor model L1210 Leukemia (intraperitoneal) in B6D2F1 (BDF1) mice. As to conditions: higher T/C = longer survival.
The mark [1] stands for this setting: T/C endpoint: mean survival time, dose: 200.0 mg/kg/injection, schedule: Q01DX001 (ip), vehicle: saline.
Where [2] appears, read: T/C endpoint: mean survival time, dose: 200.0 mg/kg/injection, schedule: Q01DX009 (ip), vehicle: saline.
Where [3] appears, read: T/C endpoint: mean survival time, dose: 200.0 mg/kg/injection, schedule: Q04DX003 (ip), vehicle: saline.
Setting [4] is: T/C endpoint: mean survival time, dose: 300.0 mg/kg/injection, schedule: Q01DX001 (ip), vehicle: saline.
[5] abbreviates: T/C endpoint: mean survival time, dose: 400.0 mg/kg/injection, schedule: Q04DX003 (ip), vehicle: saline.

The list shows only some results of the screen, not a fair sample: it gathers tests that were run many times, whatever their T/C, doses with no T/C, and many T/C values between a quarter and a half above the control. Other doses and runs of a compound stand elsewhere. T/C gives the treated animals as a percentage of the vehicle group. Some doses have a count of surviving animals in place of a T/C: the source files T/C as zero there, which appears to mark a toxic dose or a test without result, not a measured value. Some survivor counts are full or nearly so, which does not show that the dose was tolerated: survival well below the control is almost never listed, so the zero probably covers shortened survival too. Survivors were counted at the toxicity check, usually on the fifth day, unless a day is given; later deaths do not show. Schedule codes are those of the source, read here as Q, the interval in days (D) or hours (H), X, the number of doses. Some schedule codes hold Z or #, which are not explained here. Some entries were tested several times; their values stand side by side, smallest first. For survival time, the PubChem record calls one and a half times the control and up active, and a quarter to a half above the control has no call in these data; cut-offs in other NCI protocols can differ.

Consider `Cc1cc(Cl)c2ccccc2n1`, for which the survivor count (T/C endpoint: mean survival time, dose: 150.0 mg/kg/injection, schedule: Q01DX001 (ip), vehicle: other) is reported as 3 of 6; the survivor count (T/C endpoint: mean survival time, dose: 150.0 mg/kg/injection, schedule: Q04DX003 (ip), vehicle: saline) is 2 of 6; the survivor count (T/C endpoint: mean survival time, dose: 300.0 mg/kg/injection, schedule: Q01DX001 (ip), vehicle: other) is reported as 0 of 6.
As to `CCN(CC)C(C)(C)CCl`, the survivor count by setting is: under setting [1], 0 of 6; (T/C endpoint: mean survival time, dose: 400.0 mg/kg/injection, schedule: Q01DX001 (ip), vehicle: saline) 0 of 6.
As for `COc1ccc(CN2CCCN(Cc3ccc(OC)cc3)C2c2c(O)ccc3ccccc23)cc1`, the survivor count by setting is: (T/C endpoint: mean survival time, dose: 80.0 mg/kg/injection, schedule: Q01DX001 (ip), vehicle: acetone) 2 of 6; (T/C endpoint: mean survival time, dose: 100.0 mg/kg/injection, schedule: Q01DX001 (ip), vehicle: acetone) 0 of 4; (T/C endpoint: mean survival time, dose: 200.0 mg/kg/injection, schedule: Q01DX001 (ip), vehicle: acetone) 0 of 4; (T/C endpoint: mean survival time, dose: 400.0 mg/kg/injection, schedule: Q01DX001 (ip), vehicle: acetone) 0 of 4.
With `COc1ccc(CC2=NCCc3cc(OC)c(OC)cc32)cc1OC`, the survivor count under setting [2] is given as 0 of 6; the survivor count under setting [3] was 0 of 6 and 1 of 6; the survivor count under setting [4] is given as 0 of 6; the survivor count (T/C endpoint: mean survival time, dose: 400.0 mg/kg/injection, schedule: Q01DX009 (ip), vehicle: saline) is on record as 0 of 6; the survivor count under setting [5] is 0 of 6.
For `CCN(CCO)CC(C)Nc1ccc([N+](=O)[O-])c2sc3ccccc3c(=O)c12` (stereo not drawn), the T/C by setting is: (T/C endpoint: mean survival time, dose: 12.0 mg/kg/injection, schedule: Q01DX Z (ip), vehicle: saline) 140 % of control; (T/C endpoint: mean survival time, dose: 18.0 mg/kg/injection, schedule: Q01DX Z (ip), vehicle: saline) 133 % of control; (T/C endpoint: mean survival time, dose: 61.0 mg/kg/injection, schedule: Q01DX Z (ip), vehicle: saline) 138 % of control; under setting [1], 130 % of control. Moreover, the survivor count is 7 of 7 (T/C endpoint: mean survival time, dose: 135.0 mg/kg/injection, schedule: Q01DX Z (ip), vehicle: saline); 6 of 6 (T/C endpoint: mean survival time, dose: 270.0 mg/kg/injection, schedule: Q01DX Z (ip), vehicle: other); 3 of 4 (T/C endpoint: mean survival time, dose: 600.0 mg/kg/injection, schedule: Q01DX001 (ip), vehicle: saline); 2 of 4 (T/C endpoint: mean survival time, dose: 900.0 mg/kg/injection, schedule: Q01DX001 (ip), vehicle: saline).
On to `BrC#CC1CCCCC1`, for which the survivor count under setting [5] was 1 of 6.
Consider `C=C1CC[N+]2(CCCCCC)CCCC12` (stereo not drawn), for which the survivor count reads like this: (T/C endpoint: mean survival time, dose: 50.0 mg/kg/injection, schedule: Q01DX009 (ip), vehicle: saline) 3 of 3; (T/C endpoint: mean survival time, dose: 100.0 mg/kg/injection, schedule: Q01DX009 (ip), vehicle: saline) 0 of 3; under setting [2], 0 of 3.
As to `CCN(CC)CCCC(C)NC(=O)c1cccc2c([N+](=O)[O-])cccc12` (stereo not drawn), the survivor count is listed as 3 of 6 (T/C endpoint: mean survival time, dose: 200.0 mg/kg/injection, schedule: Q01DX009 (ip), vehicle: water) and 0 of 6 (T/C endpoint: mean survival time, dose: 400.0 mg/kg/injection, schedule: Q01DX009 (ip), vehicle: water).
As to `O=C(NO)c1ccccn1`, the survivor count was 3 of 6 (T/C endpoint: mean survival time, dose: 200.0 mg/kg/injection, schedule: Q01DX015 (ip), vehicle: water); 5 of 6 (T/C endpoint: mean survival time, dose: 270.0 mg/kg/injection, schedule: Q01DX015 (ip), vehicle: water); 1 of 6 (T/C endpoint: mean survival time, dose: 300.0 mg/kg/injection, schedule: Q01DX015 (ip), vehicle: water); 0 of 6 (T/C endpoint: mean survival time, dose: 400.0 mg/kg/injection, schedule: Q01DX015 (ip), vehicle: water); 0 of 6 (T/C endpoint: mean survival time, dose: 600.0 mg/kg/injection, schedule: Q01DX015 (ip), vehicle: water); 0 of 6 (T/C endpoint: mean survival time, dose: 800.0 mg/kg/injection, schedule: Q01DX015 (ip), vehicle: water).
On to `O=[N+]([O-])c1ccc(N/N=C/C(c2ccccc2)c2ccsc2)c([N+](=O)[O-])c1` (stereo not drawn), for which, for the setting “T/C endpoint: mean survival time, dose: 400.0 mg/kg/injection, schedule: Q01DX001 (ip), vehicle: saline with Tween-80”, the survivor count is listed as 2 of 6.
As for `ClCCN(CCCl)c1ccc(CCCCN2CCOCC2)cc1`, the survivor count is, setting by setting: (T/C endpoint: median survival time, dose: 100.0 mg/kg/injection, schedule: Q01DX009 (ip), vehicle: Klucel (hydroxypropylcellulose) (HPC)) 0 of 6; (T/C endpoint: median survival time, dose: 200.0 mg/kg/injection, schedule: Q01DX009 (ip), vehicle: Klucel (hydroxypropylcellulose) (HPC)) 0 of 6; (T/C endpoint: median survival time, dose: 400.0 mg/kg/injection, schedule: Q01DX009 (ip), vehicle: Klucel (hydroxypropylcellulose) (HPC)) 0 of 6.
Regarding `OCCN(Cc1cccnc1)Cc1ccccn1`, the survivor count reads like this: (T/C endpoint: mean survival time, dose: 37.5 mg/kg/injection, schedule: Q01DX001 (ip), vehicle: saline) 1 of 6; (T/C endpoint: mean survival time, dose: 75.0 mg/kg/injection, schedule: Q01DX001 (ip), vehicle: saline) 0 of 6; (T/C endpoint: mean survival time, dose: 150.0 mg/kg/injection, schedule: Q01DX001 (ip), vehicle: saline) 0 of 6; under setting [4], 0 of 6.
For the compound `COc1ccc2c3c1OC1C4(CCC5C(C2)N(CC2CC2)CCC351)OCCO4` (stereo not drawn), the survivor count (T/C endpoint: mean survival time, dose: 150.0 mg/kg/injection, schedule: Q01DX009 (ip), vehicle: Klucel (hydroxypropylcellulose) (HPC)) is 5 of 6; the survivor count (T/C endpoint: mean survival time, dose: 200.0 mg/kg/injection, schedule: Q04DX003 (ip), vehicle: Klucel (hydroxypropylcellulose) (HPC)) is recorded as 6 of 6; the survivor count (T/C endpoint: mean survival time, dose: 225.0 mg/kg/injection, schedule: Q01DX009 (ip), vehicle: Klucel (hydroxypropylcellulose) (HPC)) is listed as 2 of 6; the survivor count (T/C endpoint: mean survival time, dose: 335.0 mg/kg/injection, schedule: Q01DX009 (ip), vehicle: Klucel (hydroxypropylcellulose) (HPC)) is on record as 0 of 6; the survivor count (T/C endpoint: mean survival time, dose: 400.0 mg/kg/injection, schedule: Q04DX003 (ip), vehicle: Klucel (hydroxypropylcellulose) (HPC)) is 6 of 6.
Turning to `CCCCn1cnc2ccc3[nH]c(C)nc3c2c1=O`, the survivor count (T/C endpoint: mean survival time, dose: 50.0 mg/kg/injection, schedule: Q01DX001 (ip), vehicle: carboxymethylcellulose (CMC)) is on record as 1 of 6.
For `COc1cc(/C=N/[N+](C)(C)C)ccc1O`, the survivor count is, setting by setting: (T/C endpoint: mean survival time, dose: 50.0 mg/kg/injection, schedule: Q01DX009 (ip), vehicle: saline with Tween-80) 4 of 6; (T/C endpoint: mean survival time, dose: 100.0 mg/kg/injection, schedule: Q04DX003 (ip), vehicle: saline with Tween-80) 0 of 6; (T/C endpoint: mean survival time, dose: 200.0 mg/kg/injection, schedule: Q04DX003 (ip), vehicle: saline with Tween-80) 0 of 6; (T/C endpoint: mean survival time, dose: 400.0 mg/kg/injection, schedule: Q04DX003 (ip), vehicle: saline with Tween-80) 0 of 6.
As for `C=CCNC(=O)CCl`, the T/C runs as follows: (T/C endpoint: mean survival time, dose: 50.0 mg/kg/injection, schedule: Q04DX003 (ip), vehicle: saline) 127 % of control; (T/C endpoint: mean survival time, dose: 100.0 mg/kg/injection, schedule: Q04DX003 (ip), vehicle: saline) 127 % of control. For the same compound, the survivor count reads like this: under setting [3], 2 of 6; under setting [5], 0 of 6.
Regarding `Nc1nc[nH]c1-c1n[nH]c(=O)[nH]1`, the survivor count (T/C endpoint: mean survival time, dose: 400.0 mg/kg/injection, schedule: Q01DX001 (ip), vehicle: Klucel (hydroxypropylcellulose) (HPC)) is on record as 1 of 6.
Take `Nc1cc(Nc2cccc(Br)c2)nc(N)n1`: the survivor count (T/C endpoint: mean survival time, dose: 400.0 mg/kg/injection, schedule: Q04DX002 (ip), vehicle: Klucel (hydroxypropylcellulose) (HPC)) is on record as 0 of 3.
As to `CC(C)=CC(=O)CC(O)(C(F)(F)F)C(F)(F)Cl` (stereo not drawn), the survivor count under setting [2] is reported as 6 of 6.
In the case of `COc1ccc2nc3ccccc3c(NCCCN(C)C)c2c1`, the survivor count (T/C endpoint: mean survival time, dose: 80.0 mg/kg/injection, schedule: Q01DX001 (ip), vehicle: saline) was 3 of 4.
For the compound `CCNc1nc(Cl)nc(-c2cn(-c3ccccc3)c3ccccc23)n1`, the survivor count (T/C endpoint: mean survival time, dose: 400.0 mg/kg/injection, schedule: Q01DX009 (ip), vehicle: saline with Tween-80) is 6 of 6.
`O=C(O)c1ccc(OCCOc2ccc([N+](=O)[O-])cc2)c(Cl)c1`: the survivor count (T/C endpoint: mean survival time, dose: 400.0 mg/kg/injection, schedule: Q01DX001 (ip), vehicle: carboxymethylcellulose (CMC)) is given as 1 of 3; the survivor count (T/C endpoint: mean survival time, dose: 400.0 mg/kg/injection, schedule: Q01DX009 (ip), vehicle: carboxymethylcellulose (CMC)) is 0 of 6 and 1 of 3.
